# Primary screen of a compound library

Chains of the proteins cited; added tags and fusions are not shown.
UniProt I6X8D2, whole entry: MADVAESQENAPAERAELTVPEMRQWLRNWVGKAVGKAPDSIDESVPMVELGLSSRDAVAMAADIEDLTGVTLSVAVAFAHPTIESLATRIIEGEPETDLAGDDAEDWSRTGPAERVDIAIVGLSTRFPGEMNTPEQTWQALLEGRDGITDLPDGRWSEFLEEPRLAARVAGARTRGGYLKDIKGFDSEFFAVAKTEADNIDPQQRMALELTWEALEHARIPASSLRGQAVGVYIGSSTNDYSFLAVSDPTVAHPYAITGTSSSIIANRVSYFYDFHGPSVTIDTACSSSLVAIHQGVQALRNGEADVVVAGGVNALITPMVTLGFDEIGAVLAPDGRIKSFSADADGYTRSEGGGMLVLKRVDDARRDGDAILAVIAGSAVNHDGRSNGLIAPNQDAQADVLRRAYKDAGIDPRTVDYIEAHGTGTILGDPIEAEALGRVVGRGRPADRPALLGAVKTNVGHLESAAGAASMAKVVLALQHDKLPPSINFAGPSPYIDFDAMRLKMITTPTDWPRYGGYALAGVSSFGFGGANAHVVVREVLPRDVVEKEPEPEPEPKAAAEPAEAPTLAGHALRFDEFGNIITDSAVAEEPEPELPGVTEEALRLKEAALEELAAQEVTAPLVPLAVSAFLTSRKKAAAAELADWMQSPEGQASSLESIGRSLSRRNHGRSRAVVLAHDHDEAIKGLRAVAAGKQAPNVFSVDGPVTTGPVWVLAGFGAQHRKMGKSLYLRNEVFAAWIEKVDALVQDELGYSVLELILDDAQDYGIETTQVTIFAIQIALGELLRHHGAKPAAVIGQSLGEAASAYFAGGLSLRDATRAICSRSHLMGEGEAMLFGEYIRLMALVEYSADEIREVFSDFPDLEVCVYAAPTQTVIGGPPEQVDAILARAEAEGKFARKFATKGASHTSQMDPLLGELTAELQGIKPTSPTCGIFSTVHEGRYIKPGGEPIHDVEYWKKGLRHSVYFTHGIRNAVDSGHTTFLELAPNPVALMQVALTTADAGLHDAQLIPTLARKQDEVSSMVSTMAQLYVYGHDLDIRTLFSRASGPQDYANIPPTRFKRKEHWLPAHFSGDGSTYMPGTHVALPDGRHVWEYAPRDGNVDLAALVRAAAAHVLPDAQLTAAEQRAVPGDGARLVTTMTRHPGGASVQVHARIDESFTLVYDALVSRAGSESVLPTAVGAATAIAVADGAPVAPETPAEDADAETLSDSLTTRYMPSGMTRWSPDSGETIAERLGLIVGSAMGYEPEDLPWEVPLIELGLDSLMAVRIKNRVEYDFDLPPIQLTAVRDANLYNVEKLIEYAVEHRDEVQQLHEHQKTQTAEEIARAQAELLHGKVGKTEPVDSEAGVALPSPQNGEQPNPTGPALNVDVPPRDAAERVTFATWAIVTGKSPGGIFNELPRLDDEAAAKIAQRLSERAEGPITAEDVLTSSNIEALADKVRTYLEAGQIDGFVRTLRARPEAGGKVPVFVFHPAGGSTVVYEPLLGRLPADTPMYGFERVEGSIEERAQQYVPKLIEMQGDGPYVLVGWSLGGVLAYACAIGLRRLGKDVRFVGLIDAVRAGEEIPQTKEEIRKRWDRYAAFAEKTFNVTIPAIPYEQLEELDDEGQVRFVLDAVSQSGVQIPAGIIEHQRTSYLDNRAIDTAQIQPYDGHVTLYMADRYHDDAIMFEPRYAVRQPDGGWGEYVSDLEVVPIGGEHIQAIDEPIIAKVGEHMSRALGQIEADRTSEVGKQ

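Enzyme assay of the thioesterase domain of polyketide synthase 13; the read-out is not stated. Target: Polyketide synthase Pks13, Mycobacterium tuberculosis (UniProt I6X8D2). Concentration: 30 µM. The record gives no direction; the compounds picked for IC50 retests had high values, so higher reads as stronger inhibition. Of about 67,000 compounds tested this way, about 300 (0.46%) reached 50% or more in at least one test.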

The filed quantity is “Percent Effect” (%). The controls that fix the scale are not given in the record; negative values are as filed. This is an unselected part of the compounds tested.

| structure | Percent Effect |
|---|---|
| `N#Cc1cnn(C(=O)COc2ccccc2F)c1N` | -40.55 |
| `Cc1nonc1CNC(=O)C(C)Oc1cccc(F)c1` (centres undefined) | 11.31 |
| `CCN1CC(C(=O)NCc2noc(Cc3ccccc3)n2)CCC1=O` (centres undefined) | 2.363 |
| `COCC(=O)N1CCC2(CC1)NC(=O)c1ccccc12` | 19.41 |
| `Cc1cnn(CCNC(C)c2nnc(-c3cccc(Cl)c3)o2)c1` (centres undefined) | -31.35 |
| `COc1ccccc1C(O)CNC(=O)Nc1ncccc1C` (centres undefined) | -52.68 |
| `CCN(Cc1nc2c(cnn2C)c(=O)[nH]1)c1cc(C)ccc1C` | 24.5 |
| `O=C(NCc1ccccn1)N(Cc1ccc(F)cc1F)C1CC1` | -40 |
| `Cc1ccc(C#N)c(N2CCC(c3nccn3Cc3cscn3)CC2)n1` | 5.382 |
| `O=C(NC1CCS(=O)(=O)C1)c1ccc(-c2ccc(F)cc2)s1` (centres undefined) | 7.585 |
| `Cc1c(Br)cccc1C(=O)NCCC1CCCNC1` (centres undefined) | 18.26 |
| `CCc1c(C)nc(N)nc1NCCSCc1[nH]cnc1C` | 1.894 |
| `Cc1cnn(CC2CCCCN2C(=O)Cc2c(C)noc2C)c1` (centres undefined) | -2.8 |
| `O=C(NC1CC1)C1CN(C(=O)c2cnccn2)C1` | -32.48 |
| `O=C(NCCc1csc(-c2cccnc2)n1)c1cnn2c1CCCC2` | -44.81 |
| `COc1c(C)cnc(CN2CCC(C(=O)N(C)C)CC2)c1C` | -9.172 |
| `Cc1ccsc1CCNC(=O)CCC(=O)NC1CCCC1` | -31.3 |
| `Cc1ccc(CNC(C)c2cc(F)ccc2N2CCN(C)CC2)o1` (centres undefined) | -32.79 |
| `Cc1n[nH]c(C)c1CCC(=O)N1CCc2c(nc[nH]c2=O)C1` | -6.966 |
| `CN1CCC2(COCc3cnc(-c4ccccc4)nc32)C1` (centres undefined) | -21.11 |
| `Cc1ccc(C(C)NC(=O)N2CCCN(CC(F)F)CC2)s1` (centres undefined) | -3.938 |
| `c1ncn(CC2CCCCN2Cc2cn3ccsc3n2)n1` (centres undefined) | -28.53 |
| `NC(=O)c1c(NC(=O)C2CCCO2)sc2c1CCc1ccccc1-2` (centres undefined) | -1.297 |
| `CN1C[C@H]2CN(Cc3cccc(OC(F)(F)F)c3)CCN2C1=O` | 3.569 |
| `CC(C)c1noc(CN2CCOCC2C)n1` (centres undefined) | -17.05 |
| `CN1CCN(Cc2cscn2)CC(C(=O)N(C)C)C1` (centres undefined) | -7.695 |
| `Cc1nc(C)n(CC2CCCN(Cc3ccccc3C#N)C2)n1` (centres undefined) | -2.747 |
| `O=C(c1cc(C2CC2)[nH]n1)N1CCN(Cc2ccncc2)CC1` | 9.11 |
| `CCOC(=O)c1sc(NC(=O)COC)c(C#N)c1C` | -15.34 |
| `CN1CCC2(CCN(CC3CC3)CC2)C1=O` | -20.95 |
| `N#CCCCS(=O)(=O)N1CCC(CSc2ccccc2)C1` (centres undefined) | -31.48 |
| `O=C(C1CCC1)N1C[C@H]2CNC[C@H]2C1` | -51.26 |
| `CN(CC1Cc2ccccc2CN1C)C(=O)CSc1nccn1C` (centres undefined) | -11.72 |
| `NC1CCc2c(ccc(=O)n2CC2CC2)C1` (centres undefined) | -41.29 |
| `CCOc1ccc(-c2ccnc(CC)n2)cc1C(=O)O` | -4.713 |
| `O=C(O)[C@@H]1CN(C2CCOCC2)C[C@H]1C1CC1` | -37.02 |
| `Cc1noc(CN2CCCC(Cn3nc(C)nc3C)C2)n1` (centres undefined) | -21.84 |
| `CCC(CN1CCOCC1)n1cncc1-c1ccc2c(c1)CCN2CC` (centres undefined) | -44.69 |
| `Cc1noc(CCCC(=O)NC(C)c2cccnc2)n1` (centres undefined) | -0.3261 |
| `Cc1cccc2c1nc(CCO)n2-c1ccc(C(=O)N2CCOCC2)o1` | -14.88 |
| `Cc1ncc(CN2CCC3(CCCN(CC4CCC4)C3)C2)cn1` (centres undefined) | -4.29 |
| `O=C(CCc1ccncc1)N1CCCC(N2CCNC2=O)C1` (centres undefined) | -1.78 |
| `Cc1ncc2c(n1)CN(C(C(N)=O)c1ccc(F)cc1)CC2` (centres undefined) | -9.954 |
| `CO[C@H]1CCN(Cc2cccc(C)n2)[C@@H]2CN(Cc3cccnc3)C[C@H]12` | -17.56 |
| `CCCN1CCC[C@]2(CCC(=O)N2Cc2ccncc2)[C@H]1CC` | -31.27 |
| `COc1cccc(OC)c1CN1CC(O)CN(S(C)(=O)=O)CC1=O` (centres undefined) | -4.512 |
| `CCOc1ccc(C(=O)N2CCC(Oc3ccccc3)(C(=O)O)CC2)o1` | -6.758 |
| `Cc1ccc(C)c(-n2ccc3nc(N4CCCC4)ncc3c2=O)c1` | -21.67 |
| `Cc1noc([C@@]23CCO[C@@H]2CCN(C(=O)c2c(C)noc2C)C3)n1` | -6.901 |
| `CSCCC(C)NC(=O)N(C)Cc1cc(Cl)cn1C` (centres undefined) | -28.75 |
| `CCn1cc(CN2CCCC(c3[nH]ncc3-c3ccc(C)cc3)C2)cn1` (centres undefined) | -1.024 |
| `COc1c(C)cnc(CN(C)C(=O)Nc2ccc3c(c2)CCO3)c1C` | -8.838 |

Repeated from the top, 6 entries:

structure,Percent Effect
N#Cc1cnn(C(=O)COc2ccccc2F)c1N,-40.55
Cc1nonc1CNC(=O)C(C)Oc1cccc(F)c1 (centres undefined),11.31
CCN1CC(C(=O)NCc2noc(Cc3ccccc3)n2)CCC1=O (centres undefined),2.363
COCC(=O)N1CCC2(CC1)NC(=O)c1ccccc12,19.41
Cc1cnn(CCNC(C)c2nnc(-c3cccc(Cl)c3)o2)c1 (centres undefined),-31.35
COc1ccccc1C(O)CNC(=O)Nc1ncccc1C (centres undefined),-52.68

Measurements from “University of Dundee, Small-Polar-MMV Screening Library” (2021), ChEMBL document CHEMBL3988442.